The experiment has as its target T1, PPY-Flag (pancreatic polypeptide, predominant splicing variant, Flag-tagged) (human) (UniProt P01298).
T1 sequence: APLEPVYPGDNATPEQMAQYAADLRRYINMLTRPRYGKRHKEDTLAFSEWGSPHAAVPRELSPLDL
Description: co-IP; human CAFs transfected with EGFR-HA plasmid and treated with enriched PPY-Flag supernatant for 24 h; anti-Flag antibody pulls down PPY; blots with anti-Flag and anti-HA.

The values that follow come from PMC12120788.

These are yes or no findings as the source states them, for the method shown. In cells and extracts the contact can be indirect. Some results given as binding are weak or reduced against the parent protein; the word gives no strength. Sequences can lack the tags named with a protein.

Turning to “EGFR-HA (epidermal growth factor receptor, HA-tagged) (from UniProt P00533 25-1210)”, the binding result is listed as “binds”.
